The target in assay [1] is murine DLL3 on 293 cells (mouse) (UniProt O88516). As to the kind of experiment: flow cytometry on h293-mDLL3 cells. A general note: Flow cytometry measures light scatter and fluorescence of single cells or particles in a stream.
In assay [2] the target is human DLL3 antigen (human) (UniProt Q9NYJ7). As to the kind of experiment: ELISA or flow cytometry screen. For orientation: An ELISA detects its analyte on a solid surface through an enzyme-linked reagent.
Assay [3] concerns the target murine DLL3 on 293 cells (mouse) (UniProt O88516). Kind of assay: flow cytometry on 293-mDLL3 cells; no staining of parental 293 cells.
Assay [4] deals with human DLL3 antigen (human) (UniProt Q9NYJ7). Kind of assay: SPR, Biacore 2000, human DLL3 antigen.

Protein sequences, listed by entry. Tags and fused reporters are not part of them. Lines headed by an entry give the natural chain unless they say otherwise; changes in a name come on top. Residues count along the entry.
UniProt O88516: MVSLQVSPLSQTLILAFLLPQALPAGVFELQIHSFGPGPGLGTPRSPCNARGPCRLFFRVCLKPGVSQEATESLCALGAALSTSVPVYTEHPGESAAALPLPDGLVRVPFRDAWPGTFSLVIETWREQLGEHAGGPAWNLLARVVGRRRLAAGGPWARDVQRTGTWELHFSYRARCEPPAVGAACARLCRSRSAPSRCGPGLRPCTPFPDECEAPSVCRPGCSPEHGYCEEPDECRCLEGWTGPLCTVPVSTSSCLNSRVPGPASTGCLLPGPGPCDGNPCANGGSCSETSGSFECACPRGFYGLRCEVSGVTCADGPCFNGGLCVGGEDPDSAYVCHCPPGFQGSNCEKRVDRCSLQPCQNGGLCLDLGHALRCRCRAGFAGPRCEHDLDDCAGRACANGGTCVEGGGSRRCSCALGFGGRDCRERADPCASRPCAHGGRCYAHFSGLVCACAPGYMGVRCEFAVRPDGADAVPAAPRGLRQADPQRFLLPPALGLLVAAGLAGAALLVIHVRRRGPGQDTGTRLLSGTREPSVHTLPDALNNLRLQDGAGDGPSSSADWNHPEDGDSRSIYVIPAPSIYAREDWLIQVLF
UniProt Q9NYJ7, residues 27-492: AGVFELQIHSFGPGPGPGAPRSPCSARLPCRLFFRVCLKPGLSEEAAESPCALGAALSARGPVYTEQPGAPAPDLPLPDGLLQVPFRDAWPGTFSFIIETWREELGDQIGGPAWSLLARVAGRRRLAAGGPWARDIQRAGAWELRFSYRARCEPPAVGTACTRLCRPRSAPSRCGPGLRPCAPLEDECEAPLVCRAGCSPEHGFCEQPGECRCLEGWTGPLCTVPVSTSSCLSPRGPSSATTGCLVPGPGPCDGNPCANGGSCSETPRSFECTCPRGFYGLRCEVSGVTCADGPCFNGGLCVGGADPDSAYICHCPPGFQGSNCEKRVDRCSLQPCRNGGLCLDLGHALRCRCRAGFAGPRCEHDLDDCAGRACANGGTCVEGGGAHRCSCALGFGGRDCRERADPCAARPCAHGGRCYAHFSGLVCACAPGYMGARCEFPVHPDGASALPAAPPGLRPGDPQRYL

Results on 10 molecules are retold here after patent US20140370037A1.

Where a chain is given by its changes, count along the chain named. These are yes or no findings as the source states them, for the method shown. Some results given as binding are weak or reduced against the parent protein; the word gives no strength.

B1: SC16.8 (antibody, V domains shown)
VH: QAQLQQSGAELVRPGTSVKVSCKASGYAFTNYLIEWVKQRPGQGLEWIGVINPGTGGTNYNENFKGKATLTADKSSSTAYMQLSSLTSDDSAVYFCARSPYDYHEGAMDYWGQGTSVTVSS
VL: EIQMTQSPSSMSASLGDRITITCQATQDIVKNLNWYQQKPGKPPSFLIYYAIELAEGVPSRFSGSGSGSDYSLTISNLESEDFADYYCLQFYEFPFTFGAGTKLELK
Take B1: the binding entry in assay [1] was “binds”.

B2: SC16.103 (antibody, V domains shown)
VH: QVTLKESGPGILKPSQTLSLTCSFSGFSLSTSGMIGWIRQPSGKGLEWLAHIWWDDDKYYNPSLKSQLTISKDSSRNQVFLKITSVDTADTATYYCARRGTAYYFDYWGQGTTLTVSS
VL: DIVLTQSPASLAVSLGQRATISCRASKSVSTSGYSYMHWYQQKPGQPPKLLIYLASNLESGVPARFSGSGSGTDFTLNIHPVEEEDAATYYCQHSRELPLTFGAGTKLELK
As to B2, the binding result in assay [2] was “binds”.

B3: SC16.129 (antibody, V domains shown)
VH: QVQLKESGPGLVAPSQSLSITCTVSSGFSLTDYGVSWIRQPPGKGLEWLGVIWGGGSTYYNSALKSRLSISKDNSKSQVFLELNSLQTDDTAIYYCAKHYGHYAAYWGQGTLVTVSA
VL: DIQMTQSPASQSASLGESVTITCLASQTIGTWLAWYQQKPGKSPQLLIYAATSLADGVPSRFSGSGSGTKFSFKISSLQAEDFVSYYCQQLYSTPYTFGGGTKLEIKR
With B3, in assay [2], the binding result was “binds”.

B4: SC16.116 (antibody, V domains shown)
VH: QVQLKQSGPGRVQPSQSLSITCTVSGFSLTSNGVVHWVRQSPGKGLEWLGVLWSGGSTDYNAAFISRLSISKDNYKSQVFFKMNSLQANDTAIYYCARNNNRYGAMDYWGQGTSVTVSS
VL: DIVMTQSPSSLTVTAGEKVTMSCTSSQSLLTSGNQKNYLTWYQQKPGQPPKLLIYWASTRESGVPDRFTGSGSGTDFTLTISSLQAEDLAVYYCQNDYSLTFGAGTKLELK
For B4, in assay [2], the binding result was “binds”.

B5: SC16.34 (antibody, V domains shown)
VH: QIQLVQSGPELKRPGETVKISCKASGYTFTNYGMNWVKQAPGKGLKWMGWINTYTGDPTYADDFKGRFAFSLETSASTAYLQINNLKNEDTATYFCARIGGNSPSDYWGQGTSLTVSS
VL: SIVMTQTPKFLLVSAGDRVTITCKASQSVSNDVAWYQQKPGQSPKLLIYYASNRYSGVPDRFTGSGYGTDFTFTISTVQAEDLAVYFCQQDYSSPWTFGGGTKLEIK
On to B5, for which, in assay [1], the binding result was “binds”.

B6: SC16.56 (antibody, V domains shown)
VH: B5 VH with R13K, G49A, D57E, Y80S, N84I, G101D, N102S, S113T
VL: B5 VL with A34V, S56T, T63A, T72S, S93T, K107R
Turning to B6, the binding entry in assay [3] and in assay [1] was “binds” throughout.

B7: SC16.4 (antibody, V domains shown)
VH: QIQLVQSGPELKKPGETVKISCKASGYTFTDYSMHWVKQAPGKGLKWMGWINTETGEPGYADDFKGRFAFSLETSASTAYLQINNLKNEDTATYFCARYDGYAMDYWGQGTSVTVSS
VL: DIQMTQTTSSLSASLGDRVTISCRASQDISNYLNWYQQKPDGTVKLLIYYTSRLHSGVPSRFSGSGSGTDYSLTISNLELEDIATYFCQQGDMLPWTFGGGTKLEIK
B7: the binding entry in assay [1] was “binds”.

B8: SC16.15 (antibody, V domains shown)
VH: QVQLQQSGAELAKPGASVKMSCKASGYTFTRYWIHWIKQRPGQGLEWIGYINPTTVYTEFNQNFKDKATLTADKSSTTASMQLSSLTSEDSAVYYCARGGSNFFDYWGQGTTLTVSS
VL: DIQMTQSPASLAASVGETVAITCRASENIYYNLAWYQQKQGKSPQLLIYTANSLEDGVPSRFSGSGSGTQYSLKINSMQPEDSATYFCKQAYDVPPTFGGGTKLEIK
Regarding B8, in assay [1], the binding result is reported as “binds”.

B9: SC16.131 (antibody, V domains shown)
VH: QVQLKESGPGLVAPSQSLSITCTVSGFSLTNYGVVHWVRQPPGKGLEWLGVIWAGGITNYNSALMSRLSISEDNSKSQVFLKMNSLQTDDTAMYYCARNLGPYAMDYWGQGTSVTVSS
VL: DIQMNQSPSSLSASLGDTITITCHVSQNINVWLSWYQQKPGNIPKLLIQKASNLHTGVPSRFSGSGSGTGFTLTISSLQPEDIATYYCQQGQSYPFTFGSGTKLEIK
Turning to B9, the binding entry in assay [2] is “binds”.

B10: hSC16.25 (antibody, V domains shown)
VL: EIVLTQSPDFQSVTPKEKVTITCSASSSVSYMHWYQQKPDQSPKLLIKDSSKLASGVPSRFSGSGSGTDFTLTINSLEAEDAATYYCQQWSSNPLTFGQGTKLEIK
V domain: QITLKESGPTLVKPTQTLTLTCTFSGFSLSTSGMGVGWIRQPPGKALEWLTDIWWDDNKYYNPSLKSRLTITKDTSKNQVVLTMTNMDPVDTATYYCARRVNYYYDPYYAMDYWGQGTTLVTVS
As for B10, in assay [4], the binding entry was “binds”.
